# The supplement of paper PMC9135407
# Several values for one entry are separate records, joined by “and”; a condition that tells them apart may be missing. Identical values can stand only once. Counter-ions that a name gives are not always drawn. ± gives the standard deviation of the averaged measurements. The list shows a part of the results. Baselines shift from plate to plate; read single values as rough.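 Culture-activated primary human stellate myofibroblasts, where regained lipid droplets signal inactivation. Value: share of Hoechst-counted cells above a per-plate Bodipy cutoff, in duplicate wells, with DMSO negative and nortriptyline positive controls on each plate. Hits: a control-normalized score above the plate's top-tenth-percentile nortriptyline wells, or one of a plate's three best wells. Final well concentrations are not given.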
# System: primary human hepatic stellate cells (donor 1)
# Experiment: percent Bodipy-positive cells; higher = more lipid droplet accumulation
# Settings: 48 h
# [1] = library stock concentration: 10 mM
# [2] = library stock concentration: 1 mM
# [3] = library stock concentration: 3.33 mM
# [4] = library stock concentration: 6.4 mM
# [5] = library stock concentration: 80 uM
# [6] = library stock concentration: 400 uM
# [7] = library stock concentration: 2 mM
smiles,measurement,setting,value
CC(C)C[C@H](NC(=O)[C@@H](O)[C@H](N)Cc1ccccc1)C(=O)O [Bestatin],percent Bodipy-positive cells,[1],7.84 ± 1.4%
same,percent Bodipy-positive cells,library stock concentration: 16.2 mM,22.5 ± 4.5%
CC(C)C[C@H](NC(=O)[C@@H](O)[C@H](N)Cc1ccccc1)C(=O)O [Bestatin hydrochloride],percent Bodipy-positive cells,[1],55.4 ± 1.6%
CC(C)C[C@H](NC(=O)[C@@H](O)[C@H](N)Cc1ccccc1)C(=O)O [Bestatin (hydrochloride)],percent Bodipy-positive cells,[2],6.986 ± 0.059%
CC(C)C[C@H](NC(=O)[C@@H](O)[C@H](N)Cc1ccccc1)C(=O)O,percent Bodipy-positive cells,[1],10.5 ± 0.99%
O=C(O)CN(CCOCCOCCN(CC(=O)O)CC(=O)O)CC(=O)O,percent Bodipy-positive cells,[1],46 ± 5.3%
C=CCc1ccc(O)c(-c2ccc(O)c(CC=C)c2)c1 [Honokiol],percent Bodipy-positive cells,[3],7.43 ± 0.41%
same,percent Bodipy-positive cells,[1],35.9 ± 1.5%
CNC(=C[N+](=O)[O-])NCCSCc1ccc(CN(C)C)o1 [Ranitidine],percent Bodipy-positive cells,[3],7.3 ± 0.4%
same,percent Bodipy-positive cells,[4],20.6 ± 1.3%
same,percent Bodipy-positive cells,[1],44.3% and 32%
CNC(=C[N+](=O)[O-])NCCSCc1ccc(CN(C)C)o1 [Ranitidine HCl],percent Bodipy-positive cells,[4],7.61 ± 0.26%
CNC(=C[N+](=O)[O-])NCCSCc1ccc(CN(C)C)o1 [Ranitidine hydrochloride],percent Bodipy-positive cells,,28.1 ± 2.1%
same,percent Bodipy-positive cells,[1],14.3% and 6.37%
CN(C)CCCSc1ccccc1NC(=O)/C=C/c1ccccc1 [Cinanserin],percent Bodipy-positive cells,library stock concentration: 5.9 mM,31.5 ± 2.5%
same,percent Bodipy-positive cells,[1],30.8 ± 8.7%
CN(C)CCCSc1ccccc1NC(=O)/C=C/c1ccccc1 [Cinanserin hydrochloride],percent Bodipy-positive cells,[1],40.7 ± 1.1%
"CC(C)(C)c1ccc(S(=O)(=O)Nc2ccc(-n3ccnc3)cc2)cc1 [Stem-Cell Factor/c-Kit Inhibitor, ISCK03]",percent Bodipy-positive cells,[3],9.97 ± 1.2%
Cl.Cl.OCCN1CCN(CC/C=C2/c3ccccc3Sc3ccc(C(F)(F)F)cc32)CC1 [cis-(Z)-Flupenthixol dihydrochloride],percent Bodipy-positive cells,[1],95.2 ± 2.8%
C[C@@H](O)CCC[C@H](O)/C=C/C1=C(C/C=C\CCCC(=O)O)C(=O)CC1 [19(R)-hydroxy Prostaglandin B2],percent Bodipy-positive cells,[2],10 ± 0.47%
O=C1C=CC(=C(c2ccc(O)cc2)c2ccc(O)cc2)C=C1 [Rosolic acid],percent Bodipy-positive cells,[1],58.3 ± 4.5%
CSc1cccc(Nc2ncc3cc(-c4c(Cl)cccc4Cl)c(=O)n(C)c3n2)c1,percent Bodipy-positive cells,[3],78.89 ± 0.39%
same,percent Bodipy-positive cells,[1],73.3 ± 3.7%
CCOC(=O)Nc1ccc2c(c1)N(C(=O)CCN1CCOCC1)c1ccccc1S2 [Moricizine hydrochloride],percent Bodipy-positive cells,,6.69 ± 0.54%
O=c1c(-c2ccc(O)cc2)coc2cc(O)cc(O)c12 [Genistein],percent Bodipy-positive cells,[2],9.75 ± 0.5%
same,percent Bodipy-positive cells,[3],9.9 ± 3.2%
same,percent Bodipy-positive cells,library stock concentration: 19.2 mM,10.1 ± 0.26%
OCc1ccc(-c2ccc(-c3ccc(CO)s3)o2)s1,percent Bodipy-positive cells,[3],60.9 ± 32%
same,percent Bodipy-positive cells,[1],59.2 ± 9.1%
N[C@H](Cc1ccccc1)C(=O)O [D-phenylalanine],percent Bodipy-positive cells,[1],43.8 ± 9.2%
O=C(O)c1ccc(Nc2ncc3c(n2)-c2ccc(Cl)cc2C(c2c(F)cccc2F)=NC3)cc1,percent Bodipy-positive cells,[5],10.7 ± 1.6%
same,percent Bodipy-positive cells,[6],9.34 ± 4%
same,percent Bodipy-positive cells,[7],8.62 ± 7.1%
same,percent Bodipy-positive cells,[3],9.2 ± 0.2%
same,percent Bodipy-positive cells,[1],15.5% and 7.26%
CNCC[C@H](Oc1cccc2ccccc12)c1cccs1 [Duloxetine],percent Bodipy-positive cells,[1],95.46 ± 0.33%
Nc1c2c(nc3c1CCC3)CCCC2,percent Bodipy-positive cells,[1],13 ± 6%
Cc1cc(N2CCOCC2)ccc1Nc1nc(NC2CCCCC2)c2[nH]cnc2n1,percent Bodipy-positive cells,[3],37.7 ± 1.4%
same,percent Bodipy-positive cells,[1],51.3 ± 14%
CC[C@H]1OC(=O)[C@H](C)[C@@H](O[C@H]2C[C@@](C)(OC)[C@@H](O)[C@H](C)O2)[C@H](C)[C@@H](O[C@@H]2O[C@H](C)C[C@H](NC)[C@H]2O)[C@](C)(O)C[C@@H](C)CN(C)[C@H](C)[C@@H](O)[C@]1(C)O,percent Bodipy-positive cells,[1],57.8 ± 3.7%
CC(=O)NNC(=O)N1Cc2ccccc2Oc2ccc(Cl)cc21,percent Bodipy-positive cells,[1],18.4% and 6.26%
OC1CCC(Nc2nc(-c3ccccc3)nc3[nH]ccc23)CC1 (stereo not given),percent Bodipy-positive cells,[1],7.33 ± 3.4%
O=S(=O)(NCCNCC=Cc1ccc(Br)cc1)c1cccc2cnccc12,percent Bodipy-positive cells,[3],18.4 ± 8.4%
same,percent Bodipy-positive cells,[1],65.8 ± 9.9%
CNC[C@H](O)c1cccc(O)c1 [Phenylephrine HCl],percent Bodipy-positive cells,[3],6.93 ± 0.18%
same,percent Bodipy-positive cells,[1],10.2 ± 2.1%
CNC[C@H](O)c1cccc(O)c1 [Phenylephrine hydrochloride],percent Bodipy-positive cells,[1],27.2% and 21.5%
[Cl-].[Li+] [Lithium Chloride],percent Bodipy-positive cells,[1],48.5 ± 16%
Cc1nc(Nc2n[nH]c3c2CN(C(=O)N[C@H](CN(C)C)c2ccccc2)C3(C)C)c2sccc2n1,percent Bodipy-positive cells,[5],7.65 ± 0.7%
same,percent Bodipy-positive cells,[6],18.9 ± 2.4%
same,percent Bodipy-positive cells,[7],53.4 ± 0.84%
same,percent Bodipy-positive cells,[3],76.2 ± 6.4%
same,percent Bodipy-positive cells,[1],94.52 ± 0.57%
CN1C(=O)CC(C)(c2ccccc2)C1=O (stereo not given),percent Bodipy-positive cells,[1],25.8 ± 6.7%
CCOc1ccn(-c2ccc(F)cc2)c(=O)c1C(=O)Nc1ccc(Oc2ccnc(N)c2Cl)c(F)c1,percent Bodipy-positive cells,[5],16.3 ± 7.4%
same,percent Bodipy-positive cells,[6],14.5 ± 1.8%
same,percent Bodipy-positive cells,[7],11.3 ± 1.2%
same,percent Bodipy-positive cells,[3],4.71 ± 2.6%
same,percent Bodipy-positive cells,[1],14.5% and 13.9%
CN1CCN(C2=Nc3cc(Cl)ccc3Nc3ccccc32)CC1 [Clozapine],percent Bodipy-positive cells,[1],66.3 ± 5.6%
